Results: PMC8184511
No constants are given. Whether binding was seen depends on the method and setting. Binding seen in cells or lysates may run through a third protein. Some entries that bind do so weakly or less than the wild type.

By UniProt entry, the sequences of proteins in these tests, tags left out.
UniProt O95714: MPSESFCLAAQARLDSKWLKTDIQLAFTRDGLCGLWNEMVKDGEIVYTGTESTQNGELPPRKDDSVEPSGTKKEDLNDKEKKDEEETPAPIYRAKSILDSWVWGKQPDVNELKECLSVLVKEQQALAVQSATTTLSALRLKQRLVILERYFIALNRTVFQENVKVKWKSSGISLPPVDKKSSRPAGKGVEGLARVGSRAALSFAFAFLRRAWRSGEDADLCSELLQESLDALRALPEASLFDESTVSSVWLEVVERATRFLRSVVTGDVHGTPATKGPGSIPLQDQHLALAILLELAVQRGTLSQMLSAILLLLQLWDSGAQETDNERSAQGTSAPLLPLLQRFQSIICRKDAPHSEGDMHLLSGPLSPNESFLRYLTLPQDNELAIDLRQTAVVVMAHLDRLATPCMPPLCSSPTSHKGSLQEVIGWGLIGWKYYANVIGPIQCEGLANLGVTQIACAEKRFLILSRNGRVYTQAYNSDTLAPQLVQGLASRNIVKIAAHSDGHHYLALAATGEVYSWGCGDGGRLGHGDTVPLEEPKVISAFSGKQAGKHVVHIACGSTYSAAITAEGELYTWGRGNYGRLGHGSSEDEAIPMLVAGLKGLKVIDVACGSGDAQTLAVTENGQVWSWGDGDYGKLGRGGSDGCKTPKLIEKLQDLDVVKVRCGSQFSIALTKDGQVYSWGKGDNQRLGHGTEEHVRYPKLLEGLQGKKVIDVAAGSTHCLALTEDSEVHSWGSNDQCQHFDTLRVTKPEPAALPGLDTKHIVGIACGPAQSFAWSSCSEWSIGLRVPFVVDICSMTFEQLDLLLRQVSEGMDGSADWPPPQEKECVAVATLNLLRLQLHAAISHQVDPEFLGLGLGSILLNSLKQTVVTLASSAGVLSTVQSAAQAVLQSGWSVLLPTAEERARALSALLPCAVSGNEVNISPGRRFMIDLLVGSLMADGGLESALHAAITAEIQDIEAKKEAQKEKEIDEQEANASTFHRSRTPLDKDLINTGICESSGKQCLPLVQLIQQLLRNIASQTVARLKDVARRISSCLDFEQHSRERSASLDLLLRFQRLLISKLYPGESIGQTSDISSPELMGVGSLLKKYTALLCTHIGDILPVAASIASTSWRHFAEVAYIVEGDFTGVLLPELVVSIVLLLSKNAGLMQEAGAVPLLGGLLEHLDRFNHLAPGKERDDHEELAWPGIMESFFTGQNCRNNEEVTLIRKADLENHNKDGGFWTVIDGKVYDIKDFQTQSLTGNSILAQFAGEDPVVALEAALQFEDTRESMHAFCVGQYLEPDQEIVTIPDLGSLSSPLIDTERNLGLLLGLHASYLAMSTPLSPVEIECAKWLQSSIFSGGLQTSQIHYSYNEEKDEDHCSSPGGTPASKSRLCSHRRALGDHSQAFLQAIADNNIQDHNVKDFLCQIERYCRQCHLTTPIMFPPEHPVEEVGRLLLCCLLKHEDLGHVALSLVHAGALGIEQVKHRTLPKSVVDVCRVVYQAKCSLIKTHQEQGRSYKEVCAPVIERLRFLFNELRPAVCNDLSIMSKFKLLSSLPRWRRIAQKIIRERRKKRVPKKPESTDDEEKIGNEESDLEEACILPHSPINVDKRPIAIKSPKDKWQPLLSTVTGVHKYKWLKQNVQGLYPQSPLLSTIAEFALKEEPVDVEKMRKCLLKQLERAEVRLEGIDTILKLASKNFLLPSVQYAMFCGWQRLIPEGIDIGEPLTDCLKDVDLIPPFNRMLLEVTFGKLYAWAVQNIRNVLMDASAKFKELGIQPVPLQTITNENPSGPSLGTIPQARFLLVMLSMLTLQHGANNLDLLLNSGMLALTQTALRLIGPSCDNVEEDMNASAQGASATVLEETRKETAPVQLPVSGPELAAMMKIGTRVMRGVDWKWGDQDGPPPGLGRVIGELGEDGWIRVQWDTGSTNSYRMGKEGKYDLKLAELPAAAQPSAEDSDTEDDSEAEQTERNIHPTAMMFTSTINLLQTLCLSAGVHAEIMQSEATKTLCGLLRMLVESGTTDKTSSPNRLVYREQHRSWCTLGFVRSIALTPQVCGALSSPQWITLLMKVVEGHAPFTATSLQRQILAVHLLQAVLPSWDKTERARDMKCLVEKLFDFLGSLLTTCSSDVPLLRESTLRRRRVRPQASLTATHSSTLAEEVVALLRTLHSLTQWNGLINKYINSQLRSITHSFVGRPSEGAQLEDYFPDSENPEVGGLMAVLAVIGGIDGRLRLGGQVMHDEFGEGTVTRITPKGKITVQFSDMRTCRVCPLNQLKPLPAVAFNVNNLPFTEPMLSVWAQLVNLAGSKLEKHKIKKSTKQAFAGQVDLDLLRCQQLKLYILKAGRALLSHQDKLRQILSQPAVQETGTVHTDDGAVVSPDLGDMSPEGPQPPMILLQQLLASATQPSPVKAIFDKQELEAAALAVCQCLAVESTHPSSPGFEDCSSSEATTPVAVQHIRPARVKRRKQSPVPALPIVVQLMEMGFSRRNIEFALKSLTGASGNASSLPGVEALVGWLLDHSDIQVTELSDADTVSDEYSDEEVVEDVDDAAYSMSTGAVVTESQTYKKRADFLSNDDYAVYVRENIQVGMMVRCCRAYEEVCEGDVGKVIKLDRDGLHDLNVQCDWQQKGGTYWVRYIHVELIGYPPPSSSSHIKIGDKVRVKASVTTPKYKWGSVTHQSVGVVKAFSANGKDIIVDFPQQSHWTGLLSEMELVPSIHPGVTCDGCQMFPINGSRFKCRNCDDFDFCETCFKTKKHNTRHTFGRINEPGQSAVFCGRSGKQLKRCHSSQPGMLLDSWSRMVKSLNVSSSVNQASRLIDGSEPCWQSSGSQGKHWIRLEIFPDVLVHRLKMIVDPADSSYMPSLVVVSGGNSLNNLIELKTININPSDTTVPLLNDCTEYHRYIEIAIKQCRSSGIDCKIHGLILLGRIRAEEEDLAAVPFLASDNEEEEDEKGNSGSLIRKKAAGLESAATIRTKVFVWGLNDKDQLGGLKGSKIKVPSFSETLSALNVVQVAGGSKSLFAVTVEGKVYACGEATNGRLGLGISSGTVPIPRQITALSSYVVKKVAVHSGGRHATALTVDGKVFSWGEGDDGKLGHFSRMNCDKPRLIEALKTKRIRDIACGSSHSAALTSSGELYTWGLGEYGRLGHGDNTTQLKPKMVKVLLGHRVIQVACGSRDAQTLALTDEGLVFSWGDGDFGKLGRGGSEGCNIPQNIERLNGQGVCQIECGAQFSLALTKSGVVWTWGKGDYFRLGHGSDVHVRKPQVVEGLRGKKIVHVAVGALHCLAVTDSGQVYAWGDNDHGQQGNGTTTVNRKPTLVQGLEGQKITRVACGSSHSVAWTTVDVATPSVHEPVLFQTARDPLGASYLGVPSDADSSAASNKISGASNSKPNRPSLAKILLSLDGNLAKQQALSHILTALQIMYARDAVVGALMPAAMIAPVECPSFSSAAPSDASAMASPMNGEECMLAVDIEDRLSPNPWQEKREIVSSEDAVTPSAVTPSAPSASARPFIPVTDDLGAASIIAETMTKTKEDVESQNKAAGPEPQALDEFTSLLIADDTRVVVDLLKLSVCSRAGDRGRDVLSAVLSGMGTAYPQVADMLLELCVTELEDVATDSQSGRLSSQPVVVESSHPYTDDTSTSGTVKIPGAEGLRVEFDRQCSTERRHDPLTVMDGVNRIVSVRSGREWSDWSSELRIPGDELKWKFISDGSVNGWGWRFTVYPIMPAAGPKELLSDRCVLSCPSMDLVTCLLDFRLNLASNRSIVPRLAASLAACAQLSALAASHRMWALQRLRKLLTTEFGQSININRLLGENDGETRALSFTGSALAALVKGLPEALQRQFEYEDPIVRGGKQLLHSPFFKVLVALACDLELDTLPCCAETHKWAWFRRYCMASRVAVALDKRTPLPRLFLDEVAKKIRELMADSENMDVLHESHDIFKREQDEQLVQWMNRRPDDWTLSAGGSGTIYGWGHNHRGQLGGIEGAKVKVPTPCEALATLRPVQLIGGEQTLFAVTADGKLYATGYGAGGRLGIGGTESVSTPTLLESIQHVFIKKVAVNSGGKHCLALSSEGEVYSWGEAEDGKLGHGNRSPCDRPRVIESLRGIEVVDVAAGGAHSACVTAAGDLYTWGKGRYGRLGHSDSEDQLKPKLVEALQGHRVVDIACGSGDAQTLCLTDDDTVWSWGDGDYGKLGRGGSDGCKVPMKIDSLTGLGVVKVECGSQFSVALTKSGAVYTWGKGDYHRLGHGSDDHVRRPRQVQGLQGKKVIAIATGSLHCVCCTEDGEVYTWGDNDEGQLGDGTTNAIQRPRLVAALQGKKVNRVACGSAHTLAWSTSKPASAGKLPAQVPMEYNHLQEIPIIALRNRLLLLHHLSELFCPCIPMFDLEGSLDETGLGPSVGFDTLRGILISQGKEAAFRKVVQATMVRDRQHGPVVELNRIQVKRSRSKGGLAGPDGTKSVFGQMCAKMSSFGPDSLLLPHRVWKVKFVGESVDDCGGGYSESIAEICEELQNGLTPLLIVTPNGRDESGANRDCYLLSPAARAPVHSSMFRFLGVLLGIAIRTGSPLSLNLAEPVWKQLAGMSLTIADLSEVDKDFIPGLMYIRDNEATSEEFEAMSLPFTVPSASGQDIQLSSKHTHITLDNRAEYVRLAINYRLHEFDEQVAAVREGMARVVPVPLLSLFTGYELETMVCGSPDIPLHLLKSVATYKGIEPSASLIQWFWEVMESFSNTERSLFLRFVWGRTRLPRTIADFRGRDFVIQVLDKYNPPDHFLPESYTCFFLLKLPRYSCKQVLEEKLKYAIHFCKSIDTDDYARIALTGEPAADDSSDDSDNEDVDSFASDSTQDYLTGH

Legend:
[1] = biological target: breast cancer type 1 susceptibility protein BRCA1, endogenous (human (endogenous in HeLa and 293T)) (UniProt P38398); experiment: co-IP; total cell lysates of siCTR and siASPM 293T cells, and of ASPM KO and CTR HeLa cells, immunoprecipitation with anti-BRCA1, immunoblotting
[2] = biological target: ASPM (abnormal spindle-like microcephaly-associated protein), endogenous (human (endogenous in 293T and HeLa)) (UniProt Q8IZT6); experiment: co-IP; total cell lysates of 293T cells transfected with siHERC2 or siBRCA1 for 48 hr, immunoprecipitation with anti-ASPM, immunoblotting
[3] = biological target: FLAG-GFP-ASPM (abnormal spindle-like microcephaly-associated protein, tagged at the endogenous locus) (human (endogenous in HeLa)) (UniProt Q8IZT6); experiment: co-IP; total cell lysates of FLAG-GFP-ASPM KI HeLa cells or CTR HeLa cells, immunoprecipitation with anti-FLAG, immunoblotting

Measured: binding

E3 ligase HERC2, endogenous (from UniProt O95714 1-4834) (enzyme)
binds: all assays above
